Laboratory results as given in PubChem BioAssay AID190 (DTP/NCI, 2004).
The list is a part of this screen's results and no random one: it is rich in T/C values a quarter to a half above the control, in often repeated tests (any T/C) and in doses without a T/C. Other doses and runs of a compound stand elsewhere. T/C gives the treated animals as a percentage of the vehicle group. Some entries give survivors of the animals treated and no T/C: the source holds a T/C of zero for them, seemingly a mark for toxic or unscored doses. Some doses without a T/C left all or most animals alive at the check, yet need not have been tolerated: the source hardly ever lists a survival T/C far under the control, and the zero likely stands for such cases as well. Counts of survivors are from the toxicity check (mostly the fifth day) where no day follows; animals may have died later. Schedules are NCI's codes, taken here to give the interval after Q, in days (D) or hours (H), and the number of doses after X. Marks such as (2×) count equal records among those shown. Some entries hold several experiments; the values are given in rising order. Where survival is the endpoint, the PubChem record calls one and a half times the control and up active, and a quarter to a half above the control has no call in these data; cut-offs in other NCI protocols can differ. Some T/C values carry the count of animals alive at the toxicity check (mostly the fifth day); without a count, all were alive then.

System: AKR/Lw mice, AKR lymphoma ip, median survival T/C
Assay: NCI In Vivo Anticancer Drug Screen. Data for tumor model Lymphoma AKR (Transplanted) (intraperitoneal) in AKR/Lw mice
Conditions: T/C endpoint: median survival time, higher T/C = longer survival
Experimental: The antitumor activity of compounds was measured in mice bearing transplantable tumors. Survival or tumor size were measured and the results are expressed as the measurement made in the treated group (T) divided by the measurement made in the vehicle treated control group (C). The tumor model used in this assay is Lymphoma AKR (Transplanted) (intraperitoneal) in AKR/Lw mice

[1] = dose: 100.0 mg/kg/injection, schedule: Q01DX001 (ip), vehicle: saline
[2] = dose: 100.0 mg/kg/injection, schedule: Q04DX003 (ip), vehicle: Klucel (hydroxypropylcellulose) (HPC)
[3] = dose: 200.0 mg/kg/injection, schedule: Q01DX001 (ip), vehicle: saline
[4] = dose: 200.0 mg/kg/injection, schedule: Q04DX003 (ip), vehicle: Klucel (hydroxypropylcellulose) (HPC)
[5] = dose: 400.0 mg/kg/injection, schedule: Q01DX001 (ip), vehicle: Klucel (hydroxypropylcellulose) (HPC)
[6] = dose: 400.0 mg/kg/injection, schedule: Q04DX003 (ip), vehicle: Klucel (hydroxypropylcellulose) (HPC)
[7] = dose: 400.0 mg/kg/injection, schedule: Q01DX001 (ip), vehicle: saline

SMILES: CS(=O)(=O)OCCCCOS(C)(=O)=O
- survivor count (dose: 2.5 mg/kg/injection, schedule: Q01DX009 (ip), vehicle: Klucel (hydroxypropylcellulose) (HPC)): 10 of 10
- T/C (dose: 5.0 mg/kg/injection, schedule: Q01DX009 (ip), vehicle: saline): 129 % of control [9 of 10 alive]
- survivor count (dose: 10.0 mg/kg/injection, schedule: Q01DX009 (ip), vehicle: Klucel (hydroxypropylcellulose) (HPC)): 10 of 10
- survivor count (dose: 10.0 mg/kg/injection, schedule: Q01DX009 (ip), vehicle: saline): 10 of 10
- survivor count (dose: 12.0 mg/kg/injection, schedule: Q01DX009 (ip), vehicle: saline): 10 of 10
- survivor count (dose: 15.0 mg/kg/injection, schedule: Q01DX009 (ip), vehicle: saline): 10 of 10
- survivor count (dose: 20.0 mg/kg/injection, schedule: Q01DX009 (ip), vehicle: Klucel (hydroxypropylcellulose) (HPC)): 10 of 10
- survivor count (dose: 25.0 mg/kg/injection, schedule: Q01DX009 (ip), vehicle: saline): 9 of 10
- survivor count (dose: 32.0 mg/kg/injection, schedule: Q01DX009 (ip), vehicle: saline): 10 of 10
- T/C (dose: 50.0 mg/kg/injection, schedule: Q01DX001 (ip), vehicle: saline, evaluated on day 45): 100 % of control
- T/C (dose: 50.0 mg/kg/injection, schedule: Q01DX001 (ip), vehicle: saline, evaluated on day 60): 90, 100, 105, 106, 111 % of control
- survivor count (dose: 50.0 mg/kg/injection, schedule: Q01DX005 (ip), vehicle: Klucel (hydroxypropylcellulose) (HPC)): 9 of 10
- survivor count (dose: 50.0 mg/kg/injection, schedule: Q01DX009 (ip), vehicle: saline): 10 of 10 (2×)
- survivor count (dose: 64.0 mg/kg/injection, schedule: Q01DX009 (ip), vehicle: saline): 2 of 10
- survivor count (dose: 75.0 mg/kg/injection, schedule: Q04DX003 (ip), vehicle: saline): 10 of 10
- survivor count [1]: 10 of 10
- survivor count (dose: 100.0 mg/kg/injection, schedule: Q01DX005 (ip), vehicle: Klucel (hydroxypropylcellulose) (HPC)): 0 of 10
- survivor count (dose: 100.0 mg/kg/injection, schedule: Q01DX009 (ip), vehicle: saline): 8 of 10
- survivor count [2]: 9 of 10
- survivor count (dose: 150.0 mg/kg/injection, schedule: Q04DX003 (ip), vehicle: saline): 10 of 10
- survivor count [3]: 8 of 10 and 9 of 10
- survivor count (dose: 200.0 mg/kg/injection, schedule: Q01DX005 (ip), vehicle: Klucel (hydroxypropylcellulose) (HPC)): 4 of 10
- survivor count [4]: 7 of 10
- survivor count [5]: 6 of 10
- survivor count [6]: 1 of 10

SMILES: ClCCCNCc1ccccc1
- survivor count [3]: 5 of 10
- survivor count [7]: 0 of 10

SMILES: COc1cc2c(cc1OC)C(C#N)C2 (stereo not drawn)
- survivor count [2]: 10 of 10
- survivor count [4]: 7 of 10
- survivor count [6]: 0 of 10

SMILES: CC1(C)N=C(N)N=C(N)N1c1cc(Cl)ccc1Cl
- survivor count [1]: 6 of 10
- survivor count [3]: 0 of 10
- survivor count [7]: 0 of 10

SMILES: O=[N+]([O-])c1ccc(OCc2ccc(S(=O)(=O)F)c(Cl)c2)c(Cl)c1
- survivor count (dose: 25.0 mg/kg/injection, schedule: Q01DX009 (ip), vehicle: Klucel (hydroxypropylcellulose) (HPC)): 10 of 10
- survivor count (dose: 50.0 mg/kg/injection, schedule: Q01DX009 (ip), vehicle: Klucel (hydroxypropylcellulose) (HPC)): 10 of 10

SMILES: Nc1ccccc1SC1CC(=O)N(c2ccc(I)cc2)C1=O (stereo not drawn)
- survivor count (dose: 50.0 mg/kg/injection, schedule: Q04DX003 (ip), vehicle: Klucel (hydroxypropylcellulose) (HPC)): 10 of 10
- survivor count (dose: 200.0 mg/kg/injection, schedule: Q01DX001 (ip), vehicle: Klucel (hydroxypropylcellulose) (HPC)): 10 of 10
- survivor count [5]: 10 of 10
